Some of the results follow.
Assays:
Assay in all cases: log2 fold change, soluble protein after heating vs DMSO (PISA); higher = thermal stabilisation; K562 cells, 10 uM, 30 min; active = over 0.2 and 3.5 SD of the protein, either way, in both replicates (recomputed)
bafetinib = compound: Cc1ccc(NC(=O)c2ccc(CN3CC[C@H](N(C)C)C3)c(C(F)(F)F)c2)cc1Nc1nccc(-c2cncnc2)n1 [bafetinib]
Summary of the method: (§1)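 K562 cells at 2×10^6 cells/mL were treated for 30 min with 10 μM compound, and aliquots were heated for 3 min over 48°C-58°C before pooling. Extraction used PBS with 0.5% NP-40 at 4°C, and soluble protein was the supernatant after 21,000xg for 90 min, measured by TMTpro 16plex LC-MS/MS with channel sums equalised. Thermal stability values, relative to control samples and from duplicates, are log2 fold changes.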

Chains of the proteins cited; added tags and fusions are not shown. Lines headed by an entry give the natural chain unless they say otherwise; changes in a name come on top.
UniProt Q01433: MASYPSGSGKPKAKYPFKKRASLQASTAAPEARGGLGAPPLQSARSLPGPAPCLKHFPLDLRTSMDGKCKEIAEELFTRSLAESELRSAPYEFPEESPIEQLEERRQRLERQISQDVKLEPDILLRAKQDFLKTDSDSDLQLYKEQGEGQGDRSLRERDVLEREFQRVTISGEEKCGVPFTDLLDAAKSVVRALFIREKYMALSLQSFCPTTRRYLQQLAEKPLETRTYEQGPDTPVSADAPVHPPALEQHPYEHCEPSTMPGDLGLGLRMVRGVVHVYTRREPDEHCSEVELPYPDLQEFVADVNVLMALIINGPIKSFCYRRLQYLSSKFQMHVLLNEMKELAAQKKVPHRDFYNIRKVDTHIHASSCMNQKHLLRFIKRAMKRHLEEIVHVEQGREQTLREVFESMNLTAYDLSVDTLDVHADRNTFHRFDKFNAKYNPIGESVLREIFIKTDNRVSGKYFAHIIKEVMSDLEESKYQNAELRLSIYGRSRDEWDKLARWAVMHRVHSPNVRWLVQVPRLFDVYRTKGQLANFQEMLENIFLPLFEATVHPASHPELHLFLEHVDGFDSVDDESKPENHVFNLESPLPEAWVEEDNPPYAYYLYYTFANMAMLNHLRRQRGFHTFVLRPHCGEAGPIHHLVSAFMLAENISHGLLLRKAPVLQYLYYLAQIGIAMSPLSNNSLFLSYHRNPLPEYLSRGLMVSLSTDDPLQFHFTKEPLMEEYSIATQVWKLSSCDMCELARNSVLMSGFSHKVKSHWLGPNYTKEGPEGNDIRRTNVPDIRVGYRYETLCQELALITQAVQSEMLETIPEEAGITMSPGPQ
UniProt Q96SZ5, whole entry, looked up: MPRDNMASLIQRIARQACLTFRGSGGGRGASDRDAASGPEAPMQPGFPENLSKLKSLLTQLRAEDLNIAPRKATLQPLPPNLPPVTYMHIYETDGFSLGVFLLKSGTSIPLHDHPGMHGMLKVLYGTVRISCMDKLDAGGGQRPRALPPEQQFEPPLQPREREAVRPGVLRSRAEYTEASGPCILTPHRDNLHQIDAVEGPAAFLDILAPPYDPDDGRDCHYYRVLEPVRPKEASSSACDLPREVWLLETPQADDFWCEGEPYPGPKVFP
UniProt P11766: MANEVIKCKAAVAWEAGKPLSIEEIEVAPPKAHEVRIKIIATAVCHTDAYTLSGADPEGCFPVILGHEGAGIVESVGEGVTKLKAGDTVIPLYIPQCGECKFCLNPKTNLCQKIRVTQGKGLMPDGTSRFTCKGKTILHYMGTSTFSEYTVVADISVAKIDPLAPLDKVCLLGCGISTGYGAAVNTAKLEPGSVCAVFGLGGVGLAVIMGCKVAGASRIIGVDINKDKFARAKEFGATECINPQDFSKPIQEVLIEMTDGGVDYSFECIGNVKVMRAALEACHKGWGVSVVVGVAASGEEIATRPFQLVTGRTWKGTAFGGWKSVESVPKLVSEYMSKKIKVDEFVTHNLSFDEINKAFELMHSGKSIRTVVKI
UniProt Q53H12: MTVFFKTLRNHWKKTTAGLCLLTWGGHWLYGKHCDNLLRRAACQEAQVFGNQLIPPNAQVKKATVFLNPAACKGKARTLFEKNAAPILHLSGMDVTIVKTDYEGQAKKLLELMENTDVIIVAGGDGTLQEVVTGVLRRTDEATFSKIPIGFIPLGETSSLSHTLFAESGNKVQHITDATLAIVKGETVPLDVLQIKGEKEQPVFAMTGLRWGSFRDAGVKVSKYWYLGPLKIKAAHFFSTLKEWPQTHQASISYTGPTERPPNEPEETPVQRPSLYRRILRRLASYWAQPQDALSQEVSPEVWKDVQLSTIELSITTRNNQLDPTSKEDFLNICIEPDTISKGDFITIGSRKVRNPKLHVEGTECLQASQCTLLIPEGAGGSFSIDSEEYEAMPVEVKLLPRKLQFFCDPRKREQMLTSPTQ
UniProt Q13155: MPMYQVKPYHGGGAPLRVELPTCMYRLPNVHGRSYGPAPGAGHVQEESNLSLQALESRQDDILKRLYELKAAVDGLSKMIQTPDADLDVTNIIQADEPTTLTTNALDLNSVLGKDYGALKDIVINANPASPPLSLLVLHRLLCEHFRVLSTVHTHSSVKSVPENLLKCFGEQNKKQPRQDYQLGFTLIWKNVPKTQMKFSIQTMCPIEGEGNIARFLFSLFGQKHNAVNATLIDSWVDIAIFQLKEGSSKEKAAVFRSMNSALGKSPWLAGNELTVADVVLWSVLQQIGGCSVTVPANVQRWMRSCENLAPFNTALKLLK
UniProt O15120: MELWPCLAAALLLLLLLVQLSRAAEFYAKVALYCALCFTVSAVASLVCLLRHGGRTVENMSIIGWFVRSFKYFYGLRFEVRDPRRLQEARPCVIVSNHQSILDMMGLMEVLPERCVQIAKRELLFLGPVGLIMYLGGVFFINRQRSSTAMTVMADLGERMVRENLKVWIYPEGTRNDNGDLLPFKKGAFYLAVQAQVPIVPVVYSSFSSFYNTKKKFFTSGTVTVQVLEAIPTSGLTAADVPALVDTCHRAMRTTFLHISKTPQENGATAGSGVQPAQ
UniProt Q9NRZ7: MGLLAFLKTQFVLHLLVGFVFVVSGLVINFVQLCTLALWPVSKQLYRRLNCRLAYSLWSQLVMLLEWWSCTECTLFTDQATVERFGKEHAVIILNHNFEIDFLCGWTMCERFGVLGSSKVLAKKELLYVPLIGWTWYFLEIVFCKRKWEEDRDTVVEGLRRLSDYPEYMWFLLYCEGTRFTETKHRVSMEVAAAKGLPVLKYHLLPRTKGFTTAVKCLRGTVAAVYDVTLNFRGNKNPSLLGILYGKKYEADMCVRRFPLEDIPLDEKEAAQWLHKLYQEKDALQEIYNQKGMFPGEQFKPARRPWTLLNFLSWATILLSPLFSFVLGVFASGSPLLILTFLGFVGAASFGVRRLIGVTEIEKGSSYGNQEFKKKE

[1] = compound: Cc1cccc(CC(=O)N2CCc3c2ccc(-c2cn(C)c4ncnc(N)c24)c3F)n1
Summary of the method: as §1

nilotinib = compound: Cc1cn(-c2cc(NC(=O)c3ccc(C)c(Nc4nccc(-c5cccnc5)n4)c3)cc(C(F)(F)F)c2)cn1 [nilotinib]
Summary of the method: as §1

[2] = compound: Cc1nc(Nc2n[nH]c3c2CN(C(=O)N[C@H](CN(C)C)c2ccccc2)C3(C)C)c2sccc2n1
Summary of the method: as §1

dasatinib = compound: Cc1nc(Nc2ncc(C(=O)Nc3c(C)cccc3Cl)s2)cc(N2CCN(CCO)CC2)n1 [dasatinib]
Summary of the method: as §1

[3] = compound: Cc1ncc(-c2ccnc(Nc3ccc(S(C)(=O)=O)cc3)n2)n1C(C)C
Summary of the method: as §1

[4] = compound: Cn1cc(-c2ccc3c(c2)CCN3C(=O)Cc2cccc(C(F)(F)F)c2)c2c(N)ncnc21
Summary of the method: as §1

[5] = compound: Cn1cc(-c2ccc3nnc(C(F)(F)c4ccc5ncccc5c4)n3n2)cn1
Summary of the method: as §1

tipifarnib = compound: Cn1cncc1[C@@](N)(c1ccc(Cl)cc1)c1ccc2c(c1)c(-c1cccc(Cl)c1)cc(=O)n2C [tipifarnib]
Summary of the method: as §1

mubritinib = compound: FC(F)(F)c1ccc(/C=C/c2nc(COc3ccc(CCCCn4ccnn4)cc3)co2)cc1 [mubritinib]
Summary of the method: as §1

[6] = compound: NC(=O)Nc1cc(-c2cccc(F)c2)sc1C(=O)N[C@H]1CCCNC1
Summary of the method: as §1

[7] = compound: NC(=O)c1cnc(N[C@@H]2CCCC[C@@H]2N)nc1Nc1cccc(-n2nccn2)c1
Summary of the method: as §1

[8] = compound: NC1(c2ccc(-c3nc4ccn5c(=O)[nH]nc5c4cc3-c3ccccc3)cc2)CCC1
Summary of the method: as §1

[9] = compound: NCC(=O)Nc1ccc(-n2nc(C(F)(F)F)cc2-c2ccc3c(ccc4ccccc43)c2)cc1
Summary of the method: as §1

entinostat = compound: Nc1ccccc1NC(=O)c1ccc(CNC(=O)OCc2cccnc2)cc1 [entinostat]
Summary of the method: as §1

vorinostat = compound: O=C(CCCCCCC(=O)Nc1ccccc1)NO [vorinostat]
Summary of the method: as §1

citarinostat = compound: O=C(CCCCCCNC(=O)c1cnc(N(c2ccccc2)c2ccccc2Cl)nc1)NO [citarinostat]
Summary of the method: as §1

silmitasertib = compound: O=C(O)c1ccc2c(c1)nc(Nc1cccc(Cl)c1)c1ccncc12 [silmitasertib]
Summary of the method: as §1

[10] = compound: O=C1NC(=O)C(c2cnc3ccccn23)=C1c1cn2c3c(cc(F)cc13)CN(C(=O)N1CCCCC1)CC2
Summary of the method: as §1

[11] = compound: c1cc(OCCN2CCCCC2)cc(-c2n[nH]c3ccc(-c4nnc[nH]4)cc23)c1
Summary of the method: as §1

Measured: log2 fold change

AMPD2 (UniProt Q01433)
inactive: bafetinib -0.011 | [1] 0.002 | nilotinib 0.035 | [2] -0.029 | dasatinib -0.013 | [3] -0.032 | [4] 0.033 | [5] 0.012 | tipifarnib 0.017 | mubritinib 0.034 | [6] 0.091 | [7] -0.005 | [8] -0.044 | [9] 0.004 | entinostat -0.037 | vorinostat 0 | citarinostat 0.024 | silmitasertib -0.015 | [10] -0.01 | [11] -0.016

ADO (UniProt Q96SZ5)
inactive: bafetinib -0.029 | [1] -0.045 | nilotinib 0.038 | [2] 0.002 | dasatinib -0.011 | [3] 0.003 | [4] 0.052 | [5] -0.051 | tipifarnib -0.015 | mubritinib 0.025 | [6] 0.007 | [7] 0.023 | [8] 0.005 | [9] 0.009 | entinostat -0.02 | vorinostat -0.021 | citarinostat -0.017 | silmitasertib -0.028 | [10] -0.037 | [11] 0.1

ADH5 (UniProt P11766)
inactive: bafetinib -0.009 | [1] 0.006 | nilotinib -0.013 | [2] 0.023 | dasatinib 0.036 | [3] 0.013 | [4] 0.021 | [5] -0.006 | tipifarnib -0.029 | mubritinib 0.028 | [6] 0.024 | [7] 0.002 | [8] -0.006 | [9] 0.021 | entinostat -0.031 | vorinostat -0.013 | citarinostat 0.015 | silmitasertib -0.026 | [10] -0.03 | [11] -0.016

AGK (UniProt Q53H12)
inactive: bafetinib -0.124 | [1] -0.011 | nilotinib 0.007 | [2] -0.008 | dasatinib 0.032 | [3] -0.014 | [4] 0.016 | [5] 0.026 | tipifarnib 0.024 | mubritinib 0.026 | [6] -0.026 | [7] -0.031 | [8] -0.047 | [9] -0.005 | entinostat -0.026 | vorinostat 0.044 | citarinostat 0.028 | silmitasertib 0.01 | [10] -0.046 | [11] 0.005

AIMP2 (UniProt Q13155)
inactive: bafetinib 0.118 | [1] -0.04 | nilotinib -0.158 | [2] 0.021 | dasatinib 0.073 | [3] -0.034 | [4] -0.162 | [5] -0.17 | tipifarnib -0.04 | mubritinib -0.162 | [6] 0.041 | [7] 0.002 | [8] 0.156 | [9] 0.104 | entinostat -0.033 | vorinostat 0.037 | citarinostat -0.097 | silmitasertib 0.166 | [10] 0.369 | [11] -0.151

AGPAT2 (UniProt O15120)
inactive: bafetinib 0.053 | [1] 0.212 | nilotinib 0.022 | [2] -0.017 | dasatinib 0.03 | [3] -0.04 | [4] 0.089 | [5] -0.042 | tipifarnib 0.155 | mubritinib -0.07 | [6] 0.047 | [7] -0.083 | [8] -0.028 | [9] 0.054 | entinostat 0.088 | vorinostat -0.063 | citarinostat -0.032 | silmitasertib -0.047 | [10] -0.056 | [11] -0.01

AGPAT3 isoform 3 (UniProt Q9NRZ7)
inactive: bafetinib -0.057 | [1] 0.04 | nilotinib -0.012 | [2] 0.004 | dasatinib -0.092 | [3] -0.007 | [4] 0.033 | [5] 0.018 | tipifarnib -0.025 | mubritinib 0.062 | [6] 0.008 | [7] -0.044 | [8] -0.141 | [9] -0.041 | entinostat 0.004 | vorinostat 0.004 | citarinostat 0.029 | silmitasertib 0.008 | [10] -0.079 | [11] -0.044

Reprinted at random: two records from the list.
AGPAT2 (UniProt O15120)
inactive: bafetinib 0.053 | [1] 0.212 | nilotinib 0.022 | [2] -0.017 | dasatinib 0.03 | [3] -0.04 | [4] 0.089 | [5] -0.042 | tipifarnib 0.155 | mubritinib -0.07 | [6] 0.047 | [7] -0.083 | [8] -0.028 | [9] 0.054 | entinostat 0.088 | vorinostat -0.063 | citarinostat -0.032 | silmitasertib -0.047 | [10] -0.056 | [11] -0.01

ADH5 (UniProt P11766)
inactive: bafetinib -0.009 | [1] 0.006 | nilotinib -0.013 | [2] 0.023 | dasatinib 0.036 | [3] 0.013 | [4] 0.021 | [5] -0.006 | tipifarnib -0.029 | mubritinib 0.028 | [6] 0.024 | [7] 0.002 | [8] -0.006 | [9] 0.021 | entinostat -0.031 | vorinostat -0.013 | citarinostat 0.015 | silmitasertib -0.026 | [10] -0.03 | [11] -0.016

Next part

AKR1B1 (UniProt P15121)
inactive: bafetinib -0.129 | [1] 0.002 | nilotinib 0.005 | [2] -0.067 | dasatinib 0.042 | [3] 0.04 | [4] 0.021 | [5] -0.013 | tipifarnib -0.157 | mubritinib 0.019 | [6] -0.093 | [7] -0.026 | [8] 0 | [9] -0.02 | entinostat -0.072 | vorinostat 0.005 | citarinostat 0.037 | silmitasertib -0.017 | [10] -0.062 | [11] -0.028
